# Measurements taken from PubChem BioAssay AID1347075 (National Center for Advancing Translational Sciences (NCATS), 2019).
# In all, about 400,000 compounds went through this assay and about 5,500 (1.4%) were called active. This list was built around the results that the source calls inconclusive (neither active nor inactive); the mix of calls is not that of the screen. The call rests on the fitted dose curve; in most records, active means well fitted cell-killing curve with a large enough effect; inconclusive means small, poorly fitted or top-dose-only effect, or effect the other way; inactive means flat fitted curve, though single readings scatter. Potencies beside an inconclusive call are fits to weak or partial responses and may not hold up.
# Experiment: qHTS assay for MDR1-selective chemotherapeutics: Primary screen using the parental adenocarcinoma cell KB-3-1; further: nearly all actives have a fitted effect of over 60% in size
# Conditions: KB-3-1 viability, CellTiter-Glo ATP luminescence, 72 h; activity change, negative = cytotoxic: at 46.1 µM (top of the series)
# How it was run: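 Here the drug-naive KB-3-1 line serves as comparator for MDR sub-line selectivity; cells received compound titrations, 72 h at 37 °C, then CellTiter-Glo readout.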
# On the % scale 0 is the no-effect control and ±100 the full control effect; potency means the concentration at half of the fitted maximal effect.
Structure (SMILES),Potency,"activity change, negative = cytotoxic"
CC(C)COc1cccc(C(=O)Nc2ccc(-c3nc4ncccc4o3)cc2)c1,"inconclusive: 7.31 µM [rising, single point]",
CC(=O)Nc1ccc(CNc2nc(NC(C)C)nc3cc(-c4ccccc4)sc23)cc1,"inconclusive: 29.1 µM [cytotoxic, single point]",
Cc1cccc(N2CCN(S(=O)(=O)c3ccc4c(c3)CCCN4C(=O)C3CCC3)CC2C)c1 (stereo not drawn),"inconclusive: 23.1 µM [cytotoxic, single point]",
CS(=O)(=O)N(CC(=O)NCc1ccc(Cl)cc1)C1CCCCC1,"inconclusive: 29.1 µM [cytotoxic, single point]",
CCn1cc(C(=O)O)c(=O)c2cc(F)c(N3CCN(C(=S)Nc4ccccc4OC)CC3)cc21,"inconclusive: 13 µM [rising, partial curve]",
O=C(Nc1ccccc1)C(c1ccccc1)C1CCCC1 (stereo not drawn),"inconclusive: 32.6 µM [cytotoxic, partial curve, poor fit]",
CC(C)c1ccc2[nH]c3c(c2c1)CCC/C3=N\NC(=O)c1ccncc1,"inconclusive: 20.6 µM [cytotoxic, partial curve, poor fit]",
CC(C)(C)c1nc2c(s1)CCc1onc(-c3ccc(Br)cc3)c1-2,"inconclusive: 16.4 µM [rising, single point]",
COc1ccc(N2CCN(C3CCCCC3NS(=O)(=O)c3ccc(Cl)cc3)CC2)cc1 (stereo not drawn),"inconclusive: 23.1 µM [cytotoxic, partial curve, poor fit]",
C=CCNc1nc(-c2ccc([N+](=O)[O-])cc2)cs1,"inconclusive: 18.4 µM [cytotoxic, single point]",
CCOC(=O)c1[nH]c2ccc(F)cc2c1NC(=O)c1cc(OC)c(OC)c(OC)c1,"inconclusive: 0.146 µM [rising, full curve]",
Cc1ccc(-n2[nH]c(C)c(/C=N/NC(=O)c3ccc(O)cc3O)c2=O)cc1,,inactive: -12.6%
COc1ccc(CN2C(=O)[C@@H]3Cc4c([nH]c5ccccc45)C(C)(C)N3C2=O)cc1,active: 18.4 µM,
Oc1ccccc1C=NN=Cc1ccccc1Cl,,inactive: 1.7%
CCCCn1c(=O)[nH]c(=O)c2c1nc(Cn1ncc(Cl)c(Cl)c1=O)n2CCC,active: 2.91 µM,
CCn1nc([N+](=O)[O-])c(C(C#N)c2nc3cc(C(F)(F)F)ccc3s2)c(Cl)c1=O (stereo not drawn),active: 14.6 µM,
CC(=O)c1c(C)[nH]c(C(=O)OCC(=O)Nc2cc(S(=O)(=O)N3CCCC3)ccc2Cl)c1C,"inconclusive: 20.6 µM [cytotoxic, single point]",
COc1ccccc1/C=C/C=C(\C#N)C(=O)NC(C)c1ccccc1 (stereo not drawn),"inconclusive: 29.1 µM [cytotoxic, single point]",
COc1ccc(OCCN2CCN(S(=O)(=O)c3ccccc3C(F)(F)F)CC2)cc1,"inconclusive: 25.9 µM [cytotoxic, single point]",
Cc1c(C(=O)c2no[n+]([O-])c2C(=O)c2cnn(C)c2C)cnn1C,"inconclusive: 29.1 µM [cytotoxic, single point]",
CCc1cccc2c(C(=O)COC(=O)c3cnc(C)cn3)c[nH]c12,"inconclusive: 29.1 µM [cytotoxic, single point]",
O=C1C=CC(=O)N1CCCCCCN1C(=O)C=CC1=O,"inconclusive: 23.1 µM [cytotoxic, single point]",
Cc1ccc(Cc2c(C)nc3nc(SCC(=O)NC(C)c4ccccc4)nn3c2C)cc1 (stereo not drawn),"inconclusive: 18.4 µM [cytotoxic, single point]",

Structure (SMILES),Potency,"activity change, negative = cytotoxic"
O=C(COc1cccc2ccccc12)N/N=C/c1ccc(Sc2nc3ccccc3s2)o1,,inactive: 7.17%
CCOC(=O)/C(C#N)=C\c1cn(C)c2ccccc12,,inactive: -2.34%
Nc1c(Cl)ncnc1N1CCN(c2ncnc(Cl)c2N)CC1,,inactive: -2.72%
COc1ccc(CCC(=O)O)c(C(CC(=O)O)C(=O)O)c1OS(=O)(=O)c1ccc(C)cc1 (stereo not drawn),"inconclusive: 14.6 µM [rising, partial curve, poor fit]",
C[C@@H](NC(=O)c1nc[nH]c1C(=O)NCc1ccc(CNC(=O)OC(C)(C)C)cc1)c1ccccc1,"inconclusive: 23.1 µM [cytotoxic, single point]",
Cc1ccc(-c2csc(NCCn3c(-c4ccncc4)nc4cc(C(F)(F)F)ccc43)n2)cc1,"inconclusive: 32.6 µM [cytotoxic, single point]",
Cc1ccc(-n2sc3cc(F)ccc3c2=O)c(C)c1,"inconclusive: 16.4 µM [cytotoxic, single point]",
Cc1cccc(-n2c(O)c(C=Nc3ccccc3O)c3ccccc3c2=O)n1,,inactive: 4.24%
CCC(Sc1nc(-c2ccccc2)c(C#N)c(=O)[nH]1)C(=O)Nc1nnc(C)s1 (stereo not drawn),"inconclusive: 3.66 µM [rising, full curve]",
COc1ccc(C(=O)Nc2ccc(O)c3ccccc23)cc1,"inconclusive: 20.6 µM [cytotoxic, single point]",
O=C(NNC(=O)c1cc(-c2ccncc2)nc2ccccc12)c1ccccc1F,"inconclusive: 1.3 µM [rising, full curve, poor fit]",
CCNCc1ccccc1OCc1ccccc1,"inconclusive: 8.2 µM [cytotoxic, partial curve]",
COc1ccc(OC)c2[nH]c(C(=O)N/N=C/c3ccccc3O)cc12,"inconclusive: 18.4 µM [cytotoxic, single point]",
CC12CCC(C(=O)Nc3ccccc3Cl)([C@H](Br)C1=O)C2(C)C (stereo partly drawn),,inactive: -4.1%
N#C/C(=C(/O)c1ccc(Br)s1)c1nc2ccccc2[nH]1,active: 6.51 µM,
COCCN(C(=O)CSc1nnc(-c2cccc(C)c2)n1C)c1c(N)n(Cc2ccccc2)c(=O)[nH]c1=O,"inconclusive: 14.6 µM [rising, partial curve]",
Cn1c(CNC(=O)OC(C)(C)C)n[nH]c1=S,,inactive: 0.202%
Cc1ccc(CNC(=O)C(=O)NCC2CCCN2S(=O)(=O)c2cc(C)ccc2C)cc1 (stereo not drawn),,inactive: 7.22%
CCc1ccc(N2C(=O)C3CCCN3C2=S)cc1 (stereo not drawn),,inactive: 4.68%
Nc1ccc(N(c2ccccc2)c2ccc(N)cc2)cc1,"inconclusive: 23.1 µM [cytotoxic, single point]",
COc1cccc(NC(=O)Nc2ccc(C(C)(C)C)cc2)c1,"inconclusive: 29.1 µM [cytotoxic, single point]",
Cc1ccc(CN2CCC(CNc3ncnc4onc(-c5ccc(F)cc5)c34)CC2)cc1,"inconclusive: 29.1 µM [cytotoxic, single point]",
Cn1c(=O)c(=O)n(C)c2cc(S(=O)(=O)Nc3ccc4c(c3)OCCO4)ccc21,,inconclusive: -1.03%

Structure (SMILES),Potency,"activity change, negative = cytotoxic"
O=C(NCCCc1ccccc1)C1CCN(c2nnc(-n3cccc3)s2)CC1,"inconclusive: 32.6 µM [cytotoxic, single point]",
Cc1ccc(C(C)(C)C)cc1S(=O)(=O)N1CCC(C(=O)N2CCN(c3ccc(O)cc3)CC2)CC1,"inconclusive: 18.4 µM [cytotoxic, single point]",
CC(=O)C(=Nc1ccccc1Cl)NNc1ccc(Cl)cc1,"inconclusive: 29.1 µM [cytotoxic, single point]",
Cc1cccc(S(=O)(=O)N2CCN(Cc3ccc4c(c3)OCO4)CC2)c1,,inactive: -7.41%
Cc1ccc(C)c(-n2nnnc2Sc2nnnn2-c2ccccc2)c1,"inconclusive: 29.1 µM [cytotoxic, single point]",
CCC/C(=N\NC(=O)C1CC1)c1ccccc1,"inconclusive: 0.651 µM [rising, full curve, poor fit]",
Cc1cc(C)n(C(=O)/C(C#N)=N/Nc2cc(Cl)cc(Cl)c2)n1,,inactive: 1.74%
Cc1ccc(NC(=O)C2CCN(S(C)(=O)=O)CC2)cc1Cl,,inactive: -2.28%
CCNC(=S)N/N=C/c1cc(C)n(-c2ccc(Cl)cc2)c1C,"inconclusive: 32.6 µM [cytotoxic, single point]",
COc1ccc(-c2cc(NC=O)c3ncc(-c4cc(OC)c(OC)c(OC)c4)n3c2)cc1,"inconclusive: 0.0082 µM [cytotoxic, full curve, poor fit]",
O=C(O)COc1ccccc1C(Nc1ccccn1)c1cc(Cl)c2cccnc2c1O (stereo not drawn),,inactive: 13%
Cc1nn(CCCC(=O)Nc2cc(Oc3ccccc3)cc([N+](=O)[O-])c2)c(C)c1[N+](=O)[O-],"inconclusive: 25.9 µM [rising, single point]",
COc1ccc(C(c2nnnn2-c2c(C)cccc2C)N2CCN(C/C=C/c3ccccc3)CC2)cc1 (stereo not drawn),,inactive: -1.04%
CCCCn1c(N)c(N(Cc2ccccc2OC)C(=O)C(C)Oc2ccc(Cl)cc2)c(=O)[nH]c1=O (stereo not drawn),"inconclusive: 18.4 µM [cytotoxic, single point]",
Clc1cccc(-c2nnc(-c3ccccc3)o2)c1,"inconclusive: 18.4 µM [cytotoxic, single point]",
O=C(/C=C/c1ccc2c(c1)OCO2)Nc1c(C(=O)O)[nH]c2ccccc12,"inconclusive: 29.1 µM [rising, single point]",
Nc1cc(=O)[nH]c(SCC(=O)N2CCN(S(=O)(=O)c3ccc4ccccc4c3)CC2)n1,,inactive: 1.46%
O=C(CCn1c(=O)[nH]c2ccsc2c1=O)N(CCc1ccccc1)Cc1ccccc1,"inconclusive: 29.1 µM [cytotoxic, single point]",
Fc1ccc(Nc2nc(N3CCOCC3)c3ccccc3n2)cc1,"inconclusive: 23.1 µM [cytotoxic, single point]",
CN(C)CCNC(=O)/C(=N\O)c1ccccn1,,inactive: 5.19%
CC(C)c1ccc(NC(=O)c2snc3ccc(Cl)cc23)cc1,active: 0.0517 µM,
CC(=O)c1ccc(NC(=O)C[n+]2ccc(N(C)C)cc2)cc1,"inconclusive: 25.9 µM [cytotoxic, single point]",

# 3 structures from above, arranged by count of non-hydrogen atoms, ascending:
Structure (SMILES),Potency,"activity change, negative = cytotoxic"
CC(C)c1ccc(NC(=O)c2snc3ccc(Cl)cc23)cc1,active: 0.0517 µM,
Cc1nn(CCCC(=O)Nc2cc(Oc3ccccc3)cc([N+](=O)[O-])c2)c(C)c1[N+](=O)[O-],"inconclusive: 25.9 µM [rising, single point]",
Cc1ccc(C(C)(C)C)cc1S(=O)(=O)N1CCC(C(=O)N2CCN(c3ccc(O)cc3)CC2)CC1,"inconclusive: 18.4 µM [cytotoxic, single point]",
